Assay results as given in publication PMC11257983 (2024).
Residue numbers refer to the chain shown, from its start. Results are given in words; binding and its absence hold for the method and conditions named. In cells and extracts the contact can be indirect. Some entries that bind do so weakly or less than the wild type. Where a sequence is shown, tags or fusion partners need not be part of it.

Amino acid sequences for entries named in this document (tags omitted).
UniProt Q24324: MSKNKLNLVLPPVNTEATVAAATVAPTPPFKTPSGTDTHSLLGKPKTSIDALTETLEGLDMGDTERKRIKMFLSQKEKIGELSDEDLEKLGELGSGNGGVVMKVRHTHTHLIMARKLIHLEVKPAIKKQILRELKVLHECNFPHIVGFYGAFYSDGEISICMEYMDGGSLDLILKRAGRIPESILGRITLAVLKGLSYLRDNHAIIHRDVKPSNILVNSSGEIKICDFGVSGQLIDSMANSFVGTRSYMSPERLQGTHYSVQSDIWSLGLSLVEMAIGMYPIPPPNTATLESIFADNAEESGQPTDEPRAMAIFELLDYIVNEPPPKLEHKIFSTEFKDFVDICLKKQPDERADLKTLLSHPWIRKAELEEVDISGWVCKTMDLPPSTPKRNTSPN

Experiments:
Assay in all cases: co-IP; anti-V5 immunoprecipitation of V5-KSR from S2 total lysates, protein A/G agarose, overnight at 4 °C; MEK blotted; without or with co-expressed CNK^2–549–HYP
[1] = molecular target: T1, V5-KSR M902D (Drosophila) (UniProt Q24171)
T1 sequence: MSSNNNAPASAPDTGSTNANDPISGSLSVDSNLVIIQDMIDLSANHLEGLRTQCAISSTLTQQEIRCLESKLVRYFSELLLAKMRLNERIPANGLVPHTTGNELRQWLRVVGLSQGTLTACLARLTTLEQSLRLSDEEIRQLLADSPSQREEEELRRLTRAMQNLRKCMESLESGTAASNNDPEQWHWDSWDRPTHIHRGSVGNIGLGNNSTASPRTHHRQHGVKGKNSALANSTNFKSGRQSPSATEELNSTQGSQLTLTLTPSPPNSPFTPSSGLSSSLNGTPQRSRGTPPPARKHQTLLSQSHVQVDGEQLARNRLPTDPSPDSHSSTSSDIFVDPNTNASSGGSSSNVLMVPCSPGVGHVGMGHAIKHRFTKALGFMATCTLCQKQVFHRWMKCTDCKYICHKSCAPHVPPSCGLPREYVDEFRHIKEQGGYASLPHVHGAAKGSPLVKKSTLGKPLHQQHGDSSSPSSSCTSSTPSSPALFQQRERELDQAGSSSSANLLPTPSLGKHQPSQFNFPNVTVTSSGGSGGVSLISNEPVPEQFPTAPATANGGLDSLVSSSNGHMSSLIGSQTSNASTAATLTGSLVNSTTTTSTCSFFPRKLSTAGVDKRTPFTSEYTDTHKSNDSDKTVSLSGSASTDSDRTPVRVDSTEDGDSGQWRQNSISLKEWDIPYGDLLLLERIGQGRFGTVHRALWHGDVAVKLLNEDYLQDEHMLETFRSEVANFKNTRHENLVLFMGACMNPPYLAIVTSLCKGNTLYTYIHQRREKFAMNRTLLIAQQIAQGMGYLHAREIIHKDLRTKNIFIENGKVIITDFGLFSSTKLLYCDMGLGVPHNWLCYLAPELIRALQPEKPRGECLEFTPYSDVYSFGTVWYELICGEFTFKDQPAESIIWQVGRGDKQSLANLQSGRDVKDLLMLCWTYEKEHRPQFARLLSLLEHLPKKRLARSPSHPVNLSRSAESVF

[2] = molecular target: T2, V5-KSR Y925D (Drosophila) (UniProt Q24171)
T2 sequence: T1 sequence with D902M, Y925D

[3] = molecular target: T3, V5-KSR (Drosophila) (UniProt Q24171)
T3 sequence: T1 sequence with D902M

binding [1]: binds
binding [2]: binds
binding [3]: binds
Substance: Myc-MEK (from UniProt Q24324 1-396)
